Publication PMC10384408, “Anticancer Tungstenocenes with a Diverse Set of (O,O–), (O,S–) and (O,N–) Chelates—A Detailed Biological Study Using an Improved Evaluation via 3D Spheroid Models” (Pharmaceutics, 2023)

Tested on: HCT116 spheroids
Assay: W distribution by LA-ICP-TOF-MS
Type: cell-based, human
Conditions: 10 µM, 48 and 72 h

Compound: F[P-](F)(F)(F)(F)F.[O-]c1c(-c2ccc(Cl)cc2)oc2ccccc2c1=S.[W+4].c1cc[cH-]c1.c1cc[cH-]c1 [Compound 4, Bis(η^5-cyclopentadienyl)[2-(4-chlorophenyl)-3-(oxo-κO)-4(H)-chromen-4-thionato-κS]tungsten(IV) hexafluorophosphate]
- W distribution in spheroids: tungsten enrichment predominantly in the proliferating zone
